The whole screen tested about 340,000 compounds, of which about 6,200 (1.8%) were called active. Inconclusive results, whose numbers are uncertain, are shown with a selection of clear calls. Calls follow the shape of the dose curve; as a rule, active = well fitted activation curve with a large enough effect; inconclusive = small, poorly fitted or top-dose-only effect; inactive = no such curve, though single readings can be large or run the other way. Potencies beside an inconclusive call are fits to weak or partial responses and may not hold up.
Experiment: A quantitative high throughput screen for small molecules that induce DNA re-replication in SW480 colon adenocarcinoma cells. Also: nearly all actives have a fitted effect of over 55% in size. As to re-replication activation: % of control where 0% means no effect.
Conditions: Hoechst DNA content imaging, 48 h; re-replication activation: at 46.1 µM (top of the series) unless noted
Summary of the method: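 Per well, 250 cells were exposed to pinned compound for 48 hr. Nuclear DNA was visualised with Hoechst (40 min, 37 C) and total object intensity recorded by fluorescence scanning.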
For `NS(=O)(=O)c1ccc(CCNCc2cc(Br)ccc2OCc2ccccc2F)cc1`, the Potency was inconclusive: 18.4 µM [activator, partial curve, poor fit].
In the case of `COc1ccccc1CSc1nc2ccccc2[nH]1`, the Potency is reported as inconclusive: 14.6 µM [activator, single point].
For `Cc1ccc(C)c(N2CCN(C(=O)C3CCCN(c4ncnc5c4nc4n5CCCCC4)C3)CC2)c1` (stereo not drawn), the “re-replication activation” value was inactive: 26.4%.
With `c1cncc(-c2nnc(-c3ccco3)o2)c1` the “re-replication activation” value was inactive: -8.39%.
For `O=Cc1cc2c(cc1[B-](F)(F)F)OCO2`, the Potency was active: 16.4 µM.
For `CCc1cc(-c2[nH]ncc2-c2ccc([N+](=O)[O-])cc2)c(O)cc1OC`, the “re-replication activation” value was inactive: 25.8%.
With `COCC(=O)Nc1c(C(=O)Nc2ccc3c(c2)OCO3)oc2ccccc12` the Potency was inconclusive: 29.1 µM [activator, single point].
With `CCOc1ccc(C(=O)CCC(=O)NC(C)C(=O)OC)cc1` (stereo not drawn) the Potency was inconclusive: 0.651 µM [activator, single point].
With `O=c1c(-c2nnc(SCc3ccc(Cl)cc3)o2)cccn1Cc1ccccc1` the “re-replication activation” value was inactive: 18.7%.
For `C=CCN(c1ccccc1)S(=O)(=O)c1cccc(C(=O)NCC(c2cccs2)N2CCOCC2)c1` (stereo not drawn), the “re-replication activation” value was inactive: 7.25%.
For `O=C(Nc1ccccc1)Nc1ccc2nnsc2c1`, the “re-replication activation” value was inactive: -7.9%.
For `CCC(C)(C)NC(=O)c1ccc(Sc2nncn2C)c([N+](=O)[O-])c1`, the “re-replication activation” value was inactive: -2.41%.
For `COc1ccc(C2(CNC(=O)/C=C/c3ccco3)CCCC2)cc1OC`, the Potency was inconclusive: 16.4 µM [activator, single point].
In the case of `CC1=CC(C)(C)N2C(=O)C3(NCCc4c3[nH]c3ccccc43)c3cc(C)cc1c32` (stereo not drawn), the Potency is reported as inconclusive: 16.4 µM [activator, single point].
In the case of `Cc1nc(/N=C(\N)NC(=O)NC2CCCCC2)nc2ccccc12`, the Potency is reported as inconclusive: 18.4 µM [activator, single point].
In the case of `CN(C)c1ccc(NC(=O)CN2CCC(NC(=O)C3CCCCC3)CC2)cc1`, the Potency is reported as inconclusive: 4.47 µM [activator, partial curve, poor fit].
With `CCCn1c(O)c(N=NC(=O)c2cccnc2)c2cc(Br)ccc21` the Potency was inconclusive: 29.1 µM [activator, single point].
In the case of `O=C(NCc1ccc(C(F)(F)F)cc1)C1CC(c2ccccc2C(F)(F)F)=NO1` (stereo not drawn), the re-replication activation is reported as inactive: 1.38% [at 9.22 µM].
In the case of `Cc1ccc(NC(=S)NC(NC(=O)c2ccccc2C)C(Cl)(Cl)Cl)c(C)c1` (stereo not drawn), the Potency is reported as inconclusive: 29.1 µM [activator, single point].
For `O=C(c1ccc(-c2ccccc2Cl)o1)N1CCC1`, the re-replication activation was inconclusive: -70.4% [activator].
For `O=C(CSc1ccc2nnc(CCNC(=O)c3ccccc3)n2n1)NCCc1ccccc1`, the “re-replication activation” value was inactive: 20%.
For `O=C(/C=C/c1ccccc1)c1ccccc1O`, the Potency was inconclusive: 11.6 µM [activator, partial curve].
With `CCc1ccc(NC(=O)CSC2=C(C#N)C(c3ccco3)C3=C(CCCC3=O)N2)cc1` (stereo not drawn) the Potency was inconclusive: 23.1 µM [activator, single point].
For `C/C(=N\n1cnnc1)c1ccc(C#N)cc1`, the “re-replication activation” value was inactive: -2.63%.
In the case of `CSc1ccc(CNCc2ccco2)cc1`, the Potency is reported as inconclusive: 13 µM [activator, single point].
For `CCCCn1c(N)c(N(CCC(C)C)C(=O)C2CC(=O)N(c3ccc(OC)cc3OC)C2)c(=O)[nH]c1=O` (stereo not drawn), the “re-replication activation” value was inactive: -85.1%.
For `Cc1cccc(-n2nnnc2SCC(=O)Nc2ccc(N3CCN(C)CC3)cc2)c1`, the Potency was inconclusive: 16.4 µM [activator, single point].
For `COc1ccc(/C=C/C(=O)O)cc1S(=O)(=O)N1CCCc2ccccc21`, the Potency was inconclusive: 0.326 µM [activator, partial curve, poor fit].
For `CCC(=O)Nc1nn(CC(C)C)c2nc3ccc(C)cc3cc12`, the Potency was active: 18.4 µM.
In the case of `COc1ccc(Cl)cc1NC(=O)Cn1nnc(C(=O)NCCc2ccc(OC)c(OC)c2)c1N`, the Potency is reported as inconclusive: 20.6 µM [activator, single point].
In the case of `O=C(CSc1nc(-c2ccccc2)cc(=O)[nH]1)N1CCc2ccccc21`, the “re-replication activation” value is reported as inactive: 15.8%.
In the case of `c1ccc(-c2nc(NCCCn3ccnc3)c3oc4ccccc4c3n2)cc1`, the Potency is reported as inconclusive: 23.1 µM [activator, single point].
For `Cc1cccc(-n2cnc(C(=O)NNC(=S)Nc3ccccc3)c2)n1`, the Potency was inconclusive: 29.1 µM [activator, single point].
In the case of `COc1cccc(-n2c(SCC(=O)Nc3cc(C)on3)nc3ccccc3c2=O)c1`, the “re-replication activation” value is reported as inactive: 6.47%.
For `CC(C)[C@H](NC(=O)Nc1cccc(C(F)(F)F)c1)C(=O)O`, the “re-replication activation” value was inactive: -2.08%.
For `CC(=O)OCCc1c2ccccc2c(CCCN(C)C)c2ccccc12`, the Potency was inconclusive: 0.164 µM [activator, full curve, poor fit].
In the case of `CCCCN(C(=O)CSCc1ccc(C)cc1)c1c(N)n(Cc2ccccc2)c(=O)[nH]c1=O`, the Potency is reported as inconclusive: 6.51 µM [activator, single point].
In the case of `CC1C2(C)OC(=N)C(C#N)(C(C)O2)C1(C#N)C#N` (stereo not drawn), the Potency is reported as active: 1.3 µM.
With `Cc1cc2ccccc2cc1C(=O)c1ccccc1` the Potency was inconclusive: 25.9 µM [activator, partial curve, poor fit].
For `CCCCNC(=S)Nc1ccc(SC(F)F)cc1`, the “re-replication activation” value was inactive: 10.7%.
In the case of `Nc1cc(-c2ccc(Br)cc2)[nH]n1`, the Potency is reported as inconclusive: 25.9 µM [activator, single point].
With `NC(=O)CN(Cc1ccccc1)S(=O)(=O)c1ccc2c(c1)OCCO2` the “re-replication activation” value was inactive: -28.8%.
In the case of `Cc1nc2cc(-c3ccccc3)nn2c(N)c1-c1ccccc1`, the “re-replication activation” value is reported as inactive: -6.07%.
In the case of `S=C(Nc1ccc(Nc2ccccc2)cc1)Nc1ccccn1`, the Potency is reported as inconclusive: 20.6 µM [activator, single point].
For `COC(=O)C1=C(O)C(C(=O)OC)C(c2ccc(C)cc2)C(C#N)(C#N)C1c1ccc(C)cc1` (stereo not drawn), the Potency was inconclusive: 8.2 µM [activator, partial curve].
In the case of `N#C/C(=C\c1cn(Cc2ccccc2)c2ccccc12)C(=O)NCc1ccco1`, the Potency is reported as inconclusive: 20.6 µM [activator, single point].
For `O=c1ccc2cc3c4c(c2o1)CCCN4CCC3`, the Potency was inconclusive: 11.6 µM [activator, partial curve, poor fit].
In the case of `Cc1cc(-c2n[nH]c(=S)n2/N=C/c2ccc(C)o2)n[nH]1`, the Potency is reported as inconclusive: 4.61 µM [activator, full curve, poor fit].
In the case of `O=C(COc1ccccc1Cl)Nc1ccc2c(c1)C(=O)NC2=O`, the “re-replication activation” value is reported as inactive: 29.9%.
For `Cc1ccc(NS(=O)(=O)c2ccc3c(c2)NC(=O)CO3)cc1C`, the “re-replication activation” value was inactive: -4.35%.
With `CCOc1ncccc1C(=O)N1CCN(c2cc(Cl)ccc2C)CC1` the Potency was active: 0.651 µM.
With `O=C(NCCOc1cccc(Cl)c1Cl)c1cc(-n2cnnc2)ccc1Cl` the “re-replication activation” value was inactive: -6.62%.
With `Cc1cc2c([nH]c3ccccc32)c2c1OC(C)(C)C=C2` the Potency was inconclusive: 25.9 µM [activator, single point].
With `CCc1ccc(-c2cc(C)no2)cc1S(=O)(=O)N1CCCN(Cc2ccc(F)cc2)C1` the Potency was inconclusive: 9.2 µM [activator, partial curve, poor fit].
With `Cc1cc(C)nc(-n2nc(C)c3c(C(=O)O)cc(-c4cccc(Br)c4)nc32)n1` the Potency was inconclusive: 6.51 µM [activator, single point].
With `Cc1cc(Br)c2c(c1)/C(=C/C(=O)c1cccs1)C(=O)N2` the Potency was inconclusive: 32.6 µM [activator, partial curve, poor fit].
In the case of `COc1ccc(S(=O)(=O)Nc2ccc3oc(C)c(C(C)=O)c3c2)cc1`, the Potency is reported as inconclusive: 23.1 µM [activator, single point].
In the case of `O=C(Oc1ccc(/C=N/Nc2ccccc2)cc1)c1ccccc1`, the “re-replication activation” value is reported as inactive: 5.68%.
For `CCOC(=O)c1sc(NC(=O)CCc2ccccc2)nc1C`, the Potency was active: 5.8 µM.
In the case of `c1ccc(C2Oc3ccccc3C3CC(c4cccs4)=NN32)cc1` (stereo not drawn), the Potency is reported as inconclusive: 32.6 µM [activator, partial curve, poor fit].
For `CN1C(=O)C(O)(CC(=O)c2ccc(F)cc2)c2cc(Br)ccc21` (stereo not drawn), the Potency was inconclusive: 29.1 µM [activator, single point].
In the case of `O=C(C/C=N\OCc1ccc([N+](=O)[O-])cc1)Nc1ccc(Cl)cc1`, the “re-replication activation” value is reported as inactive: -13.3%.
In the case of `CS(=O)(=O)N(CC(=O)NCCSC1CCCCC1)c1ccc2c(c1)OCO2`, the “re-replication activation” value is reported as inactive: 10.6%.
In the case of `CCOc1ccc(Nc2nc(NCCN3CCOCC3)nc(OC)n2)cc1`, the “re-replication activation” value is reported as inactive: -16.4%.
With `CCN1C(=O)[C@H]2[C@@H](c3ccc(-c4ccc5c(c4)OCO5)c(OC)c3)N[C@@](CC(C)C)(C(=O)OC)[C@H]2C1=O` the “re-replication activation” value was inactive: -2.52%.
With `Cc1ccc(/C=N/NC(=O)c2nnn(-c3nonc3N)c2CSc2ccccc2)s1` the Potency was active: 13 µM.
For `CC[C@]12c3[nH]c4ccc(OC)cc4c3CCN1C(=O)C(CC(=O)NC/C=C(\C)CCC=C(C)C)C[C@@H]2C(=O)N1CCN(C(=O)c2ccco2)CC1` (stereo partly drawn), the Potency was inconclusive: 0.103 µM [activator, full curve, poor fit].
For `COc1cccc(C(c2nnnn2Cc2ccco2)N2CCN(Cc3ccccc3)CC2)c1OC` (stereo not drawn), the Potency was inconclusive: 29.1 µM [activator, single point].
For `C=CCN(CC=C)C(=S)Nc1cc(Cl)ccc1OC`, the “re-replication activation” value was inactive: -9.98%.
For `COc1cc(C(=O)NNC(=S)NC(=O)c2ccc3c(c2)OCO3)cc(OC)c1OC`, the Potency was inconclusive: 20.6 µM [activator, single point].
In the case of `CCCn1c(NC(=O)c2cccc(S(=O)(=O)N3CCCC3)c2)nc2ccccc21`, the Potency is reported as inconclusive: 16.4 µM [activator, single point].
In the case of `O=C(Nc1ccc(CN2CCOCC2)cc1)c1cc(Br)ccc1Cl`, the re-replication activation is reported as inconclusive: 161% [activator].
With `CCOC(=O)c1ccc(NC(=O)CCc2nnc3ccc(N4CCN(C)CC4)nn23)cc1` the Potency was inconclusive: 29.1 µM [activator, single point].

— PubChem BioAssay AID624297 (National Center for Advancing Translational Sciences (NCATS), 2012)
Potency is read from the fitted curve at half-maximal effect.
